Consider 1 substance from patent publication US20210221847A1.

By UniProt entry, the sequences of proteins in these tests, tags left out. Residues count along the entry.
UniProt P06733, residues 2-434: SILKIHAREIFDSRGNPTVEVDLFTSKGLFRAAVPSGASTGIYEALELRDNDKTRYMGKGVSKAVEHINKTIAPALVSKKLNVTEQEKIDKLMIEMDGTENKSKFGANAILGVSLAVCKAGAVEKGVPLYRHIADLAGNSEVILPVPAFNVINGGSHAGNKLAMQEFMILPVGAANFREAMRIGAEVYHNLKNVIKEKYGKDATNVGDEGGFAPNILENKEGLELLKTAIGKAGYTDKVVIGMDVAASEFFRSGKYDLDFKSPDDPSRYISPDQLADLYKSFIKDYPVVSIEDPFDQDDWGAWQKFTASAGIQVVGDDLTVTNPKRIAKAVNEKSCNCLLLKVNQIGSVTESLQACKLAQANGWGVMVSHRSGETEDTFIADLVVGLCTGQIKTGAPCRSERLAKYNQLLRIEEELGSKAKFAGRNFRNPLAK
UniProt P04114, residues 28-4563: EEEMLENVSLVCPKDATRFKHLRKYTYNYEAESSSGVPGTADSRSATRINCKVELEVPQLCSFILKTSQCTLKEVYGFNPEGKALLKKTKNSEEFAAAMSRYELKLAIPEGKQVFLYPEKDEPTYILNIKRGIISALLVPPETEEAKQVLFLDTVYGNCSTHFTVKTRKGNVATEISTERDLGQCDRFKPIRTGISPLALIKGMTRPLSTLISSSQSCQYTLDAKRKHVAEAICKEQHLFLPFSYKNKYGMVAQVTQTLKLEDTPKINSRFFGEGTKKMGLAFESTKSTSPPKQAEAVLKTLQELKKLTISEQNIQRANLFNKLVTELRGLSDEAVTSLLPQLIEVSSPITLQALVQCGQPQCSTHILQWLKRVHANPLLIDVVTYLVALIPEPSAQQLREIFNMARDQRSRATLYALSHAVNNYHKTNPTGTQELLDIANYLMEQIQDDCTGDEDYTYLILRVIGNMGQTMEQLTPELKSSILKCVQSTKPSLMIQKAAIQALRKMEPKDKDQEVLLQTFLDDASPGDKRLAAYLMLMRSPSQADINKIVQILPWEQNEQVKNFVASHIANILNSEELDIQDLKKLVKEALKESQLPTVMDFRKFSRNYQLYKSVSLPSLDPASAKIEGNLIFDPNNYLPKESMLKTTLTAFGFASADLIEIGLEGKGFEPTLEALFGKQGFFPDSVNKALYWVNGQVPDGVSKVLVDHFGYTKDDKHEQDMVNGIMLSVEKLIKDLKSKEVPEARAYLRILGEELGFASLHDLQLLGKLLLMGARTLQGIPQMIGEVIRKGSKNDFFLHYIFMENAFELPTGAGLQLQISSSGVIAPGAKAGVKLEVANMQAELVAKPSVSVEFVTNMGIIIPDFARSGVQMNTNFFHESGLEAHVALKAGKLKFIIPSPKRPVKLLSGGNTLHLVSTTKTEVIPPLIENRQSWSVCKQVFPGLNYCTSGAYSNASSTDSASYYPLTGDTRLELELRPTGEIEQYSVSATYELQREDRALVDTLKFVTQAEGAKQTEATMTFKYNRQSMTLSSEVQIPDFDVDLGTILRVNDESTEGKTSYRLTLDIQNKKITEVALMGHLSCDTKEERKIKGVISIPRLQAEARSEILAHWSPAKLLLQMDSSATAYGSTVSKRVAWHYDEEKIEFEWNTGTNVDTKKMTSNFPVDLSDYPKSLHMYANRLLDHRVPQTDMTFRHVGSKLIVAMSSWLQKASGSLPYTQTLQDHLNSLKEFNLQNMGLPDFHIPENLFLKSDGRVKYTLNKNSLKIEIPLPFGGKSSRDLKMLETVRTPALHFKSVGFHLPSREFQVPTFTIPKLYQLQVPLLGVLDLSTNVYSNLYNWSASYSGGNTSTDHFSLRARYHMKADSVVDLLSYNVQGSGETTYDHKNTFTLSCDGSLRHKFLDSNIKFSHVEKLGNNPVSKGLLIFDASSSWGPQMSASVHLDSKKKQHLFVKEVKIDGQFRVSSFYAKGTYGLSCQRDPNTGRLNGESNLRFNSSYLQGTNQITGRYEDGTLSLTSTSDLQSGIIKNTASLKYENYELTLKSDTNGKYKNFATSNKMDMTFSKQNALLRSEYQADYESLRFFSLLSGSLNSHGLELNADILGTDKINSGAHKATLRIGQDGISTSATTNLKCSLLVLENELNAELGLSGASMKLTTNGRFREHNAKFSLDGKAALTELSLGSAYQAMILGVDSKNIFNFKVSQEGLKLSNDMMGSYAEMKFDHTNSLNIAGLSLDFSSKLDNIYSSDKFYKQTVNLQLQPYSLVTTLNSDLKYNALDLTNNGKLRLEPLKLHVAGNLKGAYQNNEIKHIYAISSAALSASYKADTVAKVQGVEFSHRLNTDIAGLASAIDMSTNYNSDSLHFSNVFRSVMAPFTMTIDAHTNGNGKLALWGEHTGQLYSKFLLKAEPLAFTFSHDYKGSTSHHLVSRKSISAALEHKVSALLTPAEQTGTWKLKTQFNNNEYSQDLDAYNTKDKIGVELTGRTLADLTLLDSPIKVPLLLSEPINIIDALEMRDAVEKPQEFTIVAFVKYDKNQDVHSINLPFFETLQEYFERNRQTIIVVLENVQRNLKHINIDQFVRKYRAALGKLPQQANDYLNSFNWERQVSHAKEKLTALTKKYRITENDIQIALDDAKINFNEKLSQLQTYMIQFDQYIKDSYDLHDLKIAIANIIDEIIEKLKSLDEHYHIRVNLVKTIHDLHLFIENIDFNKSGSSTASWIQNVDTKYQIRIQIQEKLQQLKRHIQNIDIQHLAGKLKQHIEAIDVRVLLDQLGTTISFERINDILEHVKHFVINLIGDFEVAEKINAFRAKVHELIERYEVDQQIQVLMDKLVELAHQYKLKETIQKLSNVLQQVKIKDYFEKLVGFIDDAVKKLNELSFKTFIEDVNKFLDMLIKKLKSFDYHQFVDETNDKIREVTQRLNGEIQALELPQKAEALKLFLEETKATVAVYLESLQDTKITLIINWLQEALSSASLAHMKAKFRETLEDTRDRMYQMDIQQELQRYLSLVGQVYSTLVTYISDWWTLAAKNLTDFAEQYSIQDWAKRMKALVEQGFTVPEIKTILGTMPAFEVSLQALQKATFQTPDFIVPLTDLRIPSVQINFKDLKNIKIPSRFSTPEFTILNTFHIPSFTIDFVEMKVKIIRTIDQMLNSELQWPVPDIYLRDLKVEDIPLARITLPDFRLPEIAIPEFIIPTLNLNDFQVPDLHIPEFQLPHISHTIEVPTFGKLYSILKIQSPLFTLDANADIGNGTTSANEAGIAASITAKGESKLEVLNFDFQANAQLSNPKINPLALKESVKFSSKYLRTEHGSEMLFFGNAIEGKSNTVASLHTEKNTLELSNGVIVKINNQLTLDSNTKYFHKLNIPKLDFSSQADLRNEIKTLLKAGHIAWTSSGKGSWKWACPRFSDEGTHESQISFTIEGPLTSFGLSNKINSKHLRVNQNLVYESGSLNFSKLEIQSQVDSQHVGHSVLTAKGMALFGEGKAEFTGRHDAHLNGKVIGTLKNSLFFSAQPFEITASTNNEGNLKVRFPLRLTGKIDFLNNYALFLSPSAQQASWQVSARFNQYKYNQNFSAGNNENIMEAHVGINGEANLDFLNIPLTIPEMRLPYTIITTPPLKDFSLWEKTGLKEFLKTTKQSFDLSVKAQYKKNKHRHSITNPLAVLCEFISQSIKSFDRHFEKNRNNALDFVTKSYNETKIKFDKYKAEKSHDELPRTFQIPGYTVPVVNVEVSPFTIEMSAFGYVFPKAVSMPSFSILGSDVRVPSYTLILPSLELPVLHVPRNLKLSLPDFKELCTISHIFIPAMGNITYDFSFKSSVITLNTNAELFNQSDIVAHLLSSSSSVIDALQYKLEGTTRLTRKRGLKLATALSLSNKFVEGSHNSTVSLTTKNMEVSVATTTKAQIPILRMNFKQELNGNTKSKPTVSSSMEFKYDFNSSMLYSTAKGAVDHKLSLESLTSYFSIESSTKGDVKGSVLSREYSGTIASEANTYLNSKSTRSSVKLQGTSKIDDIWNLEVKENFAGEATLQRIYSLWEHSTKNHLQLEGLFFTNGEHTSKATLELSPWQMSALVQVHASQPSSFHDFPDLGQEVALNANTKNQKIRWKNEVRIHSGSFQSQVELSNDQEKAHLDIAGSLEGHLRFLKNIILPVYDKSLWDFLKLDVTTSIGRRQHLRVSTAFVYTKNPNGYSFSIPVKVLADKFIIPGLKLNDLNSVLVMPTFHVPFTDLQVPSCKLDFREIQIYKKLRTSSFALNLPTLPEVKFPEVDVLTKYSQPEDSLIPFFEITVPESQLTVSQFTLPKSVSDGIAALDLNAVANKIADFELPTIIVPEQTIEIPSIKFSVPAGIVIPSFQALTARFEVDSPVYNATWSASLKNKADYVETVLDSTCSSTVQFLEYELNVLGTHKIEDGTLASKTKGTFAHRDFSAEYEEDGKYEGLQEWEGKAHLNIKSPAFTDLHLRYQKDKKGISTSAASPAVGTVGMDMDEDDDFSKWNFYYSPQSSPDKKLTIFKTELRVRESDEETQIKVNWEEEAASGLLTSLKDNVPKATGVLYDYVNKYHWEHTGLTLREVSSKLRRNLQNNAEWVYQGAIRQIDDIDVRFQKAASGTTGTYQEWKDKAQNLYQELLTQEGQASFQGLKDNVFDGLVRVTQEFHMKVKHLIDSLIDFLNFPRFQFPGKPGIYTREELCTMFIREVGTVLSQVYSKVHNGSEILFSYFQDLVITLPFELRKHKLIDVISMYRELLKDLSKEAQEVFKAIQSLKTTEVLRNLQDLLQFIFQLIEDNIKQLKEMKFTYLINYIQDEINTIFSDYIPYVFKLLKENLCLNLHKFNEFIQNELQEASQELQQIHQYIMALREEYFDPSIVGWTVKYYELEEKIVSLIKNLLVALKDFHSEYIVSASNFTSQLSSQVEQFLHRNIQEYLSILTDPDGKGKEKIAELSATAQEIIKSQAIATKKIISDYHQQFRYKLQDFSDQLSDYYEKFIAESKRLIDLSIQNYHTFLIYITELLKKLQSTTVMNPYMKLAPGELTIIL

This assay addresses ENO1 (α-enolase) (human (rheumatoid arthritis patient)) (UniProt P06733). The assay can be described thus: immunoblotting, confocal microscopy, BIACORE system and ELISA.

No constants are given. Whether binding was seen depends on the method and setting. Some entries that bind do so weakly or less than the wild type.

For the substance “apolipoprotein B100 (apoB100) (from UniProt P04114 28-4563) (ligand)”, the binding result is on record as “binds”.
